Measured values published in the supplement of paper PMC6078165.

Test system: MDAMB468
Assay: relative JC-1 red fluorescence (viability) vs pre-drug, coculture with fibroblast (fraction); higher = more viable cancer cells
Method: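 JC-1 labelled TNBC cells cocultured 1:1 (1,500 cells each) with CellTrace Violet stained primary or stromal fibroblasts in 384-well plates in FluoroBrite medium, treated with one of 42 anticancer drugs at 0.1, 1, 10 or 100 uM. JC-1 red fluorescence (mitochondrial integrity in cancer cells only) was read by plate reader every 8 h for 72 h. Values are normalised to each well's pre-drug value. The stock of one drug was tenfold lower, so its dose labels may be too high.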

CC(C)C[C@H](NC(=O)[C@H](Cc1ccccc1)NC(=O)c1cnccn1)B(O)O [Bortezomib]
relative JC-1 red fluorescence
Details	8 h	16 h	24 h	32 h	40 h	48 h	56 h	64 h	72 h
10 µM, coculture fibroblast: C12385	0.7861	0.6352	0.546	0.487	0.446	0.445	0.409	0.396	0.391
10 µM, coculture fibroblast: H6013	0.8102	0.732	0.672	0.618	0.619	0.63	0.604	0.603	0.541
10 µM, coculture fibroblast: H6019	0.728	0.651	0.659	0.672	0.679	0.713	0.698	0.703	0.709
10 µM, coculture fibroblast: H6076	0.8501	0.8149	0.688	0.681	0.607	0.606	0.588	0.586	0.64
10 µM, coculture fibroblast: H6231	0.8362	0.85	0.72	0.682	0.552	0.522	0.488	0.461	0.479
10 µM, coculture fibroblast: HADF	0.8022	0.682	0.561	0.479	0.433	0.427	0.393	0.381	0.319
10 µM, coculture fibroblast: HCFa	0.771	0.65	0.56	0.5	0.476	0.477	0.446	0.427	0.379
10 µM, coculture fibroblast: HCPF	0.79	0.8182	0.723	0.711	0.595	0.565	0.514	0.491	0.495
10 µM, coculture fibroblast: HHSteC	0.795	0.663	0.566	0.482	0.453	0.457	0.411	0.387	0.339
10 µM, coculture fibroblast: HMF	0.765	0.804	0.678	0.674	0.577	0.566	0.541	0.541	0.55
10 µM, coculture fibroblast: HPFa	0.888	0.77	0.705	0.629	0.617	0.614	0.566	0.553	0.488
10 µM, coculture fibroblast: HUF	0.824	0.677	0.552	0.48	0.442	0.444	0.413	0.41	0.403
10 µM, coculture fibroblast: Hs5	0.914	0.805	0.746	0.7249	0.639	0.6073	0.5793	0.5499	0.58668
10 µM, coculture fibroblast: Hs27A	0.828	0.761	0.702	0.657	0.615	0.608	0.572	0.553	0.468
10 µM, coculture fibroblast: Hs343T	0.809	0.812	0.683	0.681	0.599	0.584	0.546	0.547	0.544
10 µM, coculture fibroblast: WS1	0.776	0.646	0.559	0.503	0.455	0.442	0.417	0.405	0.401
100 µM, coculture fibroblast: C12385	0.8402	0.716	0.538	0.452	0.3985	0.3874	0.3442	0.3223	0.3119
100 µM, coculture fibroblast: H6013	0.884	0.799	0.752	0.686	0.683	0.678	0.647	0.632	0.561
100 µM, coculture fibroblast: H6019	0.7956	0.629	0.604	0.583	0.572	0.58	0.5567	0.5618	0.5631
100 µM, coculture fibroblast: H6076	0.9182	0.879	0.838	0.825	0.823	0.702	0.82	0.811	0.745
100 µM, coculture fibroblast: H6231	0.814	0.89	0.779	0.773	0.663	0.63	0.572	0.549	0.558
100 µM, coculture fibroblast: HADF	0.864	0.745	0.686	0.63	0.596	0.575	0.526	0.505	0.431
100 µM, coculture fibroblast: HCFa	0.867	0.727	0.668	0.645	0.643	0.644	0.597	0.568	0.505
100 µM, coculture fibroblast: HCPF	0.8559	0.8699	0.748	0.752	0.666	0.624	0.578	0.566	0.573
100 µM, coculture fibroblast: HHSteC	0.884	0.769	0.719	0.666	0.626	0.638	0.561	0.537	0.473
100 µM, coculture fibroblast: HMF	0.811	0.8399	0.7321	0.693	0.588	0.558	0.534	0.525	0.538
100 µM, coculture fibroblast: HPFa	0.9161	0.849	0.8425	0.7487	0.722	0.727	0.659	0.65	0.57
100 µM, coculture fibroblast: HUF	0.908	0.747	0.6642	0.604	0.552	0.539	0.5	0.489	0.478
100 µM, coculture fibroblast: Hs5	0.817	0.906	0.779	0.739	0.643	0.604	0.574	0.54	0.58
100 µM, coculture fibroblast: Hs27A	0.8184	0.73634	0.661	0.603	0.543	0.519	0.479	0.454	0.383
100 µM, coculture fibroblast: Hs343T	0.822	0.886	0.794	0.779	0.648	0.638	0.606	0.595	0.607
100 µM, coculture fibroblast: WS1	0.842	0.635	0.53	0.435	0.374	0.351	0.32	0.303	0.296

The reference is the same well before dosing, and untreated signal decays as well.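 Labels refer to human fibroblasts, largely primary: uterine (C12385, HUF), lung (H6013), bone (Hs27A), adrenal (HADF), skin (WS1), plus mammary HMF and breast cancer-associated Hs343T. Cancer lines are basal-like or mesenchymal-like triple-negative breast cancer. The paper counts as hits responses shifting over 3x the replicate standard deviation. The tissue of the other fibroblasts is not given here.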
